{
  "source": "paper doi:10.1101/2020.03.06.981126",
  "key": {"[1]": {"biological_target": "OsIRO2-N (truncated IRON-RELATED BHLH …ON FACTOR 2, aa 1-150) (Oryza sativa) (UniProt Q0JFZ0)", "assay": "two-hybrid"}, "[2]": {"biological_target": "Myc-OsIRO2 (Oryza sativa) (UniProt Q0JFZ0)", "assay": "co-IP"}, "[3]": {"biological_target": "GFP10-OsIRO2 (full-length OsIRO2 fused to the GFP10 fragment) (Oryza sativa) (UniProt Q0JFZ0)", "assay": "split reporter"}},
  "note": "No constants are given. Whether binding was seen depends on the method and setting. For part of these data: In cells and extracts the contact can be indirect. Some results given as binding are weak or reduced against the parent protein; the word gives no strength.",
  "data": [
    {"substance": "Oryza sativa FER-LIKE FE …-INDUCED …ON FACTOR (OsFIT), full length, in pGADT7 (from UniProt A0A0N7KIY3 1-352)", "values": [
      {"measurement": "binding", "setting": "[1]", "value": "binds"}
    ]},
    {"substance": "HA-OsFIT (from UniProt A0A0N7KIY3 1-352)", "values": [
      {"measurement": "binding", "setting": "[2]", "value": "binds"}
    ]},
    {"substance": "OsFIT-GFP11 (full-length OsFIT fused to the GFP11 fragment) (from UniProt A0A0N7KIY3 1-352)", "values": [
      {"measurement": "binding", "setting": "[3]", "value": "binds"}
    ]}
  ]
}
